The values that follow come from article PMC13329807.

Protein sequences, listed by entry. Tags and fused reporters are not part of them.
UniProt P46937: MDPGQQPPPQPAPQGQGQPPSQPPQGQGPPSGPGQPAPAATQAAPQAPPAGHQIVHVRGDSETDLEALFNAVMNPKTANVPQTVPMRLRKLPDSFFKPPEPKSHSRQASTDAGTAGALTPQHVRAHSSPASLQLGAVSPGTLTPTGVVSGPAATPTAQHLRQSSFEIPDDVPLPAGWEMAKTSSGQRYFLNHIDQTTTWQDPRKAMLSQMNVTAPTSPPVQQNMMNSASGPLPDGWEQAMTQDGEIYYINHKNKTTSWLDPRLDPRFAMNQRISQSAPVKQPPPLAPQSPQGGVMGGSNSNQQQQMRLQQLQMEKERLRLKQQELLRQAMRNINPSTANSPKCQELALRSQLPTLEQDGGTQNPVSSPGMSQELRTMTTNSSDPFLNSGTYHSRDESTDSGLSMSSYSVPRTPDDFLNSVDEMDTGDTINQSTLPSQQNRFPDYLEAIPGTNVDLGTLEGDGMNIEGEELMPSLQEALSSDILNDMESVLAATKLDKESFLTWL
UniProt P35240: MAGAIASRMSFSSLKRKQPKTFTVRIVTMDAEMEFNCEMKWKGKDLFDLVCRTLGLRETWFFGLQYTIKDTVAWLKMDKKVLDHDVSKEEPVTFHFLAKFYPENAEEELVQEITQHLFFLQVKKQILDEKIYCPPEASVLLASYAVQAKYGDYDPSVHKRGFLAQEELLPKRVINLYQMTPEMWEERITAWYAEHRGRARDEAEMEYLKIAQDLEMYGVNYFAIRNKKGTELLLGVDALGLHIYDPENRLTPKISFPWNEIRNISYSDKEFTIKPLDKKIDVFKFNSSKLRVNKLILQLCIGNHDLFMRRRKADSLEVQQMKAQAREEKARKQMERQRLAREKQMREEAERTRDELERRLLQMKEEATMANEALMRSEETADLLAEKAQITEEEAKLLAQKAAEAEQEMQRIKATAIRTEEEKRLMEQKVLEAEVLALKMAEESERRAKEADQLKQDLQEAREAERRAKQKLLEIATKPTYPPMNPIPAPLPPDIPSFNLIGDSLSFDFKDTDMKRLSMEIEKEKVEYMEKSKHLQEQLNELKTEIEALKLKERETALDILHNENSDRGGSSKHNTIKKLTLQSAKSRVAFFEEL

The assay concerns the target T1, Purified human ARHGAP18 (N-terminal SUMO-HIS-tagged), immobilised on NiNTA beads (human) (UniProt Q8N392).
T1 sequence: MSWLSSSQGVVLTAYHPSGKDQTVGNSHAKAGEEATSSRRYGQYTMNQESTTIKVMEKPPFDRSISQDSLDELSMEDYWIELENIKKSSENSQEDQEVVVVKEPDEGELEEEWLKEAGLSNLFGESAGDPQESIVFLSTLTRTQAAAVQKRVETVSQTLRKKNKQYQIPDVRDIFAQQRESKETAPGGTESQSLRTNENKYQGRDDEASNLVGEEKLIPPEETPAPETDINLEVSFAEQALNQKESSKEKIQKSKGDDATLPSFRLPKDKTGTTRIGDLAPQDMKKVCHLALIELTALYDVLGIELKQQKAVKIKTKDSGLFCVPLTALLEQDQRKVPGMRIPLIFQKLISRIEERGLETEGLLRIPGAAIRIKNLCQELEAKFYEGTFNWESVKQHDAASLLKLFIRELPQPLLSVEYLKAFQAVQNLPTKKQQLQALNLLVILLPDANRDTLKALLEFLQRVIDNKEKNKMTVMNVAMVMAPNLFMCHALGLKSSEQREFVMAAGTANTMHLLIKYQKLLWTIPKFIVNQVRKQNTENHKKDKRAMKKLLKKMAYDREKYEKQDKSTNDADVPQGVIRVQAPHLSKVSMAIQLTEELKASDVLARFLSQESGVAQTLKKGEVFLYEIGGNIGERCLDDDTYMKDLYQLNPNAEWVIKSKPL
Briefly: pull-down; SUMO-ARHGAP18 held on NiNTA beads; Jeg-3 WT cell lysate (25 mM Tris, 5% glycerol, 150 mM NaCl, 0.2% Triton X-100, phosphatase and protease inhibitors, 1 mM DTT) nutated with the beads 3 h at 4°C; four washes; Western blot; only the target purified.

No constants are given. Whether binding was seen depends on the method and setting. In cells and extracts the contact can be indirect. Some entries that bind do so weakly or less than the wild type. Where a sequence is shown, tags or fusion partners need not be part of it.

Regarding “endogenous YAP (Yes-associated protein) (from UniProt P46937 1-504)”, the binding entry is “binds”.
To GFP-merlin (from UniProt P35240 1-595) belongs “binds”.
